# Experimental data as given in patent US20250282770A1, “BIOLUMINESCENT PROBES TO TRACK STEM CELLS IN VIVO” (THE BOARD OF TRUSTEES OF THE UNIVERSITY OF ILLINOIS, priority 2024, published 2025).
# Experiment: Analyte selectivity assay for AlDeLuc aldehyde product
# Settings: 50 μM
smiles,measurement,setting,value
"CCN(CC)c1ccc2nc(C3=NC(C=O)CS3)sc2c1 (centres unmarked) [aldehyde form of AlDeLuc, 2-(6-(diethylamino)benzo[d]thiazol-2-yl)-4,5-dihydrothiazole-4-carbaldehyde]","effect of glutathione, lysine, cysteine, 5-methoxytryptamine on ALDH1A1-catalyzed bioluminescence","Cys and GSH 1 mM, others 100 μM",did not attenuate the bioluminescence
same,"oxidation of aldehyde by peroxides, radicals or hypochlorite","analytes 100 μM, one hour room temperature",No interference
